# Assay results as given in PubChem BioAssay AID2685 (National Center for Advancing Translational Sciences (NCATS), 2010).
# This is one part of the list. The main result of the screen is listed elsewhere. These columns were measured beside it and carry no call. Most of these compounds were active or inconclusive in the main read-out, so they are no random draw. Potencies come from curve fits of mixed quality, noted in brackets.
# Test: qHTS Assay for Lipid Storage Modulators in Drosophila S3 Cells;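 on cell number change: cells counted by Cell Tracker Red CMTPX staining in the red channel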
# Details: BODIPY lipid droplet fluorescence, 18-24 h; for cell number change: measured here: cell count max response, cells fed with added oleic acid
# In short: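 Laser-scanning cytometry quantifies lipid droplet accumulation (500–530 nm total intensity; droplet/cell object ratio) in oleic acid-fed (400 uM added) Drosophila S3 cells treated with a concentration series. 20 uM Triacsin C defined 100% inhibition.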
# [1] = measured here: cell number channel AC50, cells fed with added oleic acid
# [2] = measured here: lipid fluorescence (Fed channel) AC50, cells fed with added oleic acid
SMILES,cell number change [%],AC50 [1],AC50 [2]
O=C(Nc1nc(-c2ccc(F)cc2)cs1)C1CCCO1 (stereo not drawn),44.3,"6.51 µM [rising, single point]","18.4 µM [rising, partial curve, poor fit]"
CCCN1CCN(S(=O)(=O)c2ccc3c(c2)NC(=O)C(C)S3)CC1 (stereo not drawn),31,"20.6 µM [rising, single point]",–
Cc1cc(NC(=O)c2ccc(F)c(S(=O)(=O)N3CCCCC3)c2)no1,5.52,–,"29.1 µM [rising, single point]"
CC(Cc1ccccc1)NC(=S)CN1CCCC1=S (stereo not drawn),0.107,–,–
Nc1c(C(=O)N/N=C/c2cccnc2)cnn1-c1ccccc1,13.8,–,"0.206 µM [rising, full curve, poor fit]"
CC(=NC1CCCC1)c1c(C)[nH]n(-c2nc3ccccc3s2)c1=O,–,–,"29.1 µM [rising, single point]"
c1ccc(CC2CCN(C3=Nc4cccc5cccc3c45)CC2)cc1,49.9,"9.2 µM [rising, partial curve]","13 µM [rising, partial curve]"
COc1cc(CNc2ccc(O)cc2)cc(Br)c1OCc1ccccc1,-53.2,"20.6 µM [falling, partial curve, poor fit]","29.1 µM [falling, single point]"
Cc1ccc(NC(=O)C2CCC(=O)N2C(=O)OCc2ccccc2)cc1 (stereo not drawn),-16.7,–,"0.116 µM [rising, single point]"
Cc1cc(C)cc(OCC(=O)O/N=C(\N)c2ccccc2Cl)c1,42.4,"25.9 µM [rising, single point]","8.2 µM [rising, partial curve, poor fit]"
Cc1ccc(N2CCN(C(=O)c3cc(C(=O)c4ccccc4C)c[nH]3)CC2)c(C)c1,-26.7,–,"29.1 µM [falling, single point]"
Cc1cc2nncn2c(Cc2ccccc2)n1,-12.9,–,–
COc1ccccc1CCNC(=O)c1cnn2c(C(F)F)cc(C)nc12,9.85,–,–
COCCNC(C(=O)Nc1cc(Cl)cc(Cl)c1)c1ccccc1 (stereo not drawn),45.2,"29.1 µM [rising, single point]",–
COc1ccc(C(=O)OCC(=O)NC(C)CCc2ccccc2)c(OC)c1 (stereo not drawn),-19.4,–,"16.4 µM [falling, partial curve]"
CC(C)(C)N1CC(C(=O)Nc2ccc(S(=O)(=O)N3CCCCC3)cc2)CC1=O (stereo not drawn),29.7,–,–
COc1ccc(C(=O)Nc2nc(C)c3cc4c(cc3n2)OCO4)cc1,20.7,–,"1.84 µM [rising, full curve, poor fit]"
CCc1ccc2c(CC(=O)Nc3nnc(C4CC4)s3)coc2c1,29,–,–
CC(=O)Nc1ccc(Nc2ncnc3c2cnn3-c2cccc(C)c2)cc1,–,–,"2.59 µM [rising, single point]"
Cc1ccc(C)c(S(=O)(=O)NCc2ccc3c(c2)OCO3)c1,-9.79,–,"3.66 µM [rising, single point]"

SMILES,cell number change [%],AC50 [1],AC50 [2]
COc1cc(/C=N/n2cnn(Cc3ccccc3Cl)c2=S)cc(OC)c1OC,22,–,–
COc1nccnc1NS(=O)(=O)c1ccc(NC(=S)NC(=O)/C=C/c2ccc(F)cc2)cc1,1.04,"6.51 µM [falling, single point]",–
Cc1cccc(C(=O)N/N=C/c2ccc(OC3CSC3)cc2)c1,18.2,–,"8.2 µM [rising, partial curve]"
CC1(C)CC2CC(C)(CN2C(=S)Nc2ccccc2)C1 (stereo not drawn),11.9,"0.164 µM [falling, partial curve, poor fit]",–
CCCN1C(=O)C(=O)N(CC(=O)c2cc(C)n(C3CC3)c2C)C1=O,34.8,"32.6 µM [rising, partial curve, poor fit]",–
Cc1nc2ccccc2c(=O)n1NC(=O)C1CC1,12.3,–,"6.31 µM [falling, single point]"
COC(=O)c1c(NC(=O)C2CCC2)sc(C(=O)N(C)C)c1C,88,"3.66 µM [rising, full curve]","6.51 µM [rising, single point]"
COc1ccc(C(O)(CCC(C)C)C(CN2CCOCC2)c2ccccc2)cc1 (stereo not drawn),-46.1,"29.1 µM [falling, single point]","2.31 µM [falling, partial curve]"
CC1CN(C(=O)Nc2cccc(Cl)c2)C2(CCCCCC2)O1 (stereo not drawn),33.9,"29.1 µM [rising, single point]",–
CC(=O)N1CCN(C(=O)CCc2nc3ccccc3c(=O)[nH]2)CC1,15.7,–,"0.103 µM [falling, full curve, poor fit]"
CCOc1ccccc1C(=O)NCC(=O)NNC(=O)CN(C)S(=O)(=O)c1ccc(Cl)cc1,54.6,"23.1 µM [rising, single point]","18.4 µM [rising, partial curve]"
O=C(NCc1ccco1)C1CCN(c2nc3ccccc3n2Cc2ccc(F)cc2)CC1,0.184,–,"8.2 µM [rising, partial curve]"
COC(=O)c1coc(-c2ccc(OC)cc2)c1C(=O)OC,–,–,"7.31 µM [falling, partial curve, poor fit]"
CC1C/C(=C/c2cccn2C)C(=O)/C(=C/c2cccn2C)C1 (stereo not drawn),-172,"9.2 µM [falling, partial curve]",–
CC(=O)c1c(C)oc2ccc(N(C(C)=O)S(=O)(=O)c3ccc(F)cc3C)cc12,-51.1,"7.31 µM [falling, partial curve]",–
Cc1ccc(S(=O)(=O)NCCC2=CCCCC2)cc1C(N)=O,-45.9,"13 µM [falling, partial curve, poor fit]","2.31 µM [falling, partial curve]"
CC(=O)OCC(=O)Nc1ccc([N+](=O)[O-])cc1Cl,5.08,–,–
CCCC(C)NC(=O)c1cc(C(=O)OC)cc([N+](=O)[O-])c1 (stereo not drawn),1.19,"0.13 µM [falling, full curve, poor fit]",–
CCCCn1c(SCC(=O)NCc2ccco2)nc2ccccc2c1=O,69.5,"1.3 µM [rising, full curve]","23.1 µM [rising, partial curve]"
COc1cc2c(cc1OC)C(CC#N)=NC(C)(C)C2,30.2,"2.31 µM [rising, full curve]","0.013 µM [rising, full curve, poor fit]"

SMILES,cell number change [%],AC50 [1],AC50 [2]
Cc1ccccc1N=C(NOCc1ccccc1)c1nonc1N,-25.9,–,"16.4 µM [falling, single point]"
CCN(c1ccccc1)S(=O)(=O)c1ccc(OC)c(N=N/C(C(=O)Nc2ccccc2)=C(/C)O)c1,-54.3,"9.2 µM [falling, single point]","1.46 µM [falling, partial curve]"
CN(C1CCCCC1)S(=O)(=O)c1ccccc1,3.18,–,"14.6 µM [rising, single point]"
CCOC(=O)c1c(NC(=O)CSc2nnc(-c3cccnc3)o2)sc(C(C)=O)c1C,-26.8,–,"0.411 µM [rising, single point]"
NC(=O)c1ccc(C(F)(F)F)n(Cc2cccc(Cl)c2)c1=O,–,–,"29.1 µM [falling, single point]"
COc1nc(-c2ccccc2)ccc1-c1noc(-c2ccco2)n1,–,–,"6.51 µM [rising, single point]"
Cc1ccccc1OCC(=O)NCC1CCCO1 (stereo not drawn),57.9,"29.1 µM [rising, single point]","29.1 µM [rising, single point]"
O=C(NCCc1c[nH]c2ccccc12)C1CCN(S(=O)(=O)c2ccccc2F)CC1,–,"1.64 µM [rising, single point]",–
COc1ccc(S(=O)(=O)N(CC(=O)NCc2ccco2)c2ccccc2OC)cc1,21.4,–,–
CCn1nc(C)cc1C(=O)OCC(=O)c1ccc(Cl)cc1,-0.379,–,"1.16 µM [rising, single point]"
Cc1ccccc1C(=O)Oc1cc(N)n(S(=O)(=O)c2ccccc2)n1,-48.9,"29.1 µM [falling, single point]",–
O=C(O)c1ccccc1C(=O)c1ccc(Oc2ccccc2)cc1,11.4,–,"2.31 µM [falling, single point]"
CC(=O)Nc1ccc2c(c1)OCO2,-7.33,"0.0082 µM [falling, full curve, poor fit]","0.092 µM [falling, full curve, poor fit]"
CCOc1ccc(-c2c(=O)n(OCc3ccccn3)c3ccccc3[n+]2[O-])cc1,-11.7,–,"25.9 µM [falling, single point]"
CCOC(=O)C(CC)/C(C)=N\NC(=O)CCC(=O)Nc1ccc(Cl)cc1Cl (stereo not drawn),49.2,"0.00517 µM [rising, full curve]","0.366 µM [rising, full curve, poor fit]"
CCN(CC)C(=O)CSc1nc2ccc(NC(=O)CSc3nnc(COc4ccccc4C)n3C)cc2s1,-12.6,–,"4.11 µM [falling, partial curve]"
O=C1C=CC(=O)N1Cc1ccccc1,–,–,"4.61 µM [falling, full curve]"
CCc1ccc(S(=O)(=O)/N=C2\C=C(Nc3cccc(C(=O)O)c3)C(=O)c3ccccc32)cc1,-3.85,–,–
O=C(CNC(=O)c1ccc(F)cc1)NCc1ccc(Cl)cc1,60.6,"29.1 µM [rising, single point]",–
CC(C)(C)c1cc(NC(=O)COC(=O)c2nccnc2N)n(-c2ccccc2)n1,-4.95,–,"29.1 µM [rising, single point]"

# Some of these compounds in order of molecular weight, falling:
SMILES,cell number change [%],AC50 [1],AC50 [2]
O=C(NCCc1c[nH]c2ccccc12)C1CCN(S(=O)(=O)c2ccccc2F)CC1,–,"1.64 µM [rising, single point]",–
Cc1ccccc1N=C(NOCc1ccccc1)c1nonc1N,-25.9,–,"16.4 µM [falling, single point]"
COc1nc(-c2ccccc2)ccc1-c1noc(-c2ccco2)n1,–,–,"6.51 µM [rising, single point]"
CCn1nc(C)cc1C(=O)OCC(=O)c1ccc(Cl)cc1,-0.379,–,"1.16 µM [rising, single point]"
